# Measurements published in patent publication US8637665B2, “Pyrrolo[2,L-C][L,4]benzodiazepine-benzothiazole or benzoxazole conjugates linked through piperazine moiety and process for the preparation thereof” (priority 2010, dated 2014).
# Some entries share one result that the patent states for a list of compounds.
# Tested on: eight tumour cells lines derived from seven cancer types
# Assay: In vitro anticancer activity, SRB assay, panel of eight cell lines
# Type: cell-based, human
# Conditions: range over the eight cell lines per compound; read-out: GI50 range against cancer cell lines
# Protocol: Anticancer activity: In vitro biological activity studies were carried out at the Advance Center for Treatment Research & Education in Cancer (ACTREC), Navi Mumbai.
# The compounds were evaluated for in vitro anticancer activity against eight tumour cells lines derived from seven cancer types (non-small-cell lung, colon, oral, cervix, ovarian, prostate, and breast cancer) as shown in Table 2. For each compound, dose response curves for each cell line were measured at a minimum of five concentrations at 10 fold dilutions. A protocol of 48 h continuous drug exposure was used and a sulforhodamine B (SRB) protein assay was used to estimate cell viability or growth. The concentration causing 50% cell growth inhibition (GI50) and 50% cell death (LC50, −50% growth) compared with the control was calculated. Compounds 9a-9l have been evaluated for their in vitro cytotoxicity in eight cell lines from seven human cancer types of lung (Hop-62, A-549) colon (COLO-205) cervix (Si—Ha), ovary (A-2780), prostate (PC3) breast (MCF7), oral (KB). The results are expressed as percent of cell growth determined relative to that of untreated control cells (Table-8 and table-9).
smiles,measurement,value
"COc1cc2c(cc1OCCCCN1CCN(CCCCOc3ccc(-c4nc5ccccc5s4)cc3)CC1)N=C[C@@H]1CCCN1C2=O [Compound 9e, 7-Methoxy-8-[4-(4-{4-[4(1,3-benzothiazol-2-yl)-phenoxy]butyl}piperazin-1-yl)butyl]oxy-(11aS)-1,2,3,11a-tetrahydro-5H-pyrrolo[2,1-c][1,4]benzodiazepin-5-one]",GI50,≤ 120 nM
